Assay results published in PMC12955895.
No constants are given. Whether binding was seen depends on the method and setting. Binding seen in cells or lysates may run through a third protein. A yes stands for co-enrichment or nearness to the bait. Other partners may have been found.

Sequences of proteins named here, by UniProt entry; tags and fusion partners are left off.
UniProt P60842: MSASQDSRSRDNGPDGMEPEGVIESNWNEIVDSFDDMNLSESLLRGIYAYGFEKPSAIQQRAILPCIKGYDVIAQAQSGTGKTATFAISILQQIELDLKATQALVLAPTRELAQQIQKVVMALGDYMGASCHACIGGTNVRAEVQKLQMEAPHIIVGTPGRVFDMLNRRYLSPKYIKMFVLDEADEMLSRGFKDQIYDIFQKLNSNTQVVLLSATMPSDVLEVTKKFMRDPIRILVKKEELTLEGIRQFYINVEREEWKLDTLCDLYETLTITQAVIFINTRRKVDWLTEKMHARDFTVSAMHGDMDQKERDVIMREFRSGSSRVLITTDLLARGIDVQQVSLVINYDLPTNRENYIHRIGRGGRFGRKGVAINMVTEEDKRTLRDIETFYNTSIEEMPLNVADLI
UniProt P19474: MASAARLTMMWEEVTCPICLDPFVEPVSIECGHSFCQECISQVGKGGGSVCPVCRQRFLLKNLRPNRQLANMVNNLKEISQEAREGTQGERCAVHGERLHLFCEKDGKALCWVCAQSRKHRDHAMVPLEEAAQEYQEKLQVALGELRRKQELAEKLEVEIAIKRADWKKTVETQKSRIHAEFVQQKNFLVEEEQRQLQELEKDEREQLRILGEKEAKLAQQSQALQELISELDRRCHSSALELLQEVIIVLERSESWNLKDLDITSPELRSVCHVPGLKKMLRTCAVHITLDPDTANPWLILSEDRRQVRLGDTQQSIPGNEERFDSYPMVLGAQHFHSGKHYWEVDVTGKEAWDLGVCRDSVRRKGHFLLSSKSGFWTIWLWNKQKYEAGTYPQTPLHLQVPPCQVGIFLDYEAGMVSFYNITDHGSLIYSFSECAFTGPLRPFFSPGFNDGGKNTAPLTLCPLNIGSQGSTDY

Molecular target: T1, TOPK, bait of the mass spectrometry identification of interaction proteins (UniProt Q96KB5)
T1 sequence: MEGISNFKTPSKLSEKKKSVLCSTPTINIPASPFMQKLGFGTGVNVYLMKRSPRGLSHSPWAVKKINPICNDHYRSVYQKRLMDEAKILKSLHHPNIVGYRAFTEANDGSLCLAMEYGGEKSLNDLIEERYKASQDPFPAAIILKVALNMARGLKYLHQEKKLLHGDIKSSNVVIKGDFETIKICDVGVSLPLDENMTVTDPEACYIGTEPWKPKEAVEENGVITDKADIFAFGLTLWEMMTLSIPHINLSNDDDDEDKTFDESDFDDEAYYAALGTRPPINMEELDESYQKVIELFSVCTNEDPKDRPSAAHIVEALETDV
Assay: affinity purification with mass spectrometry; silver staining and mass spectrometry of TOPK interaction proteins; cells and bait construct not told

Row | binding | Substance
1 | binds | eIF4A1, endogenous (from UniProt P60842 1-406) (enzyme)
2 | binds | TRIM21 (from UniProt P19474 1-475)
